Source: PubChem BioAssay AID686943 (Drosophila RNAi Screening Center, 2013)

Screen: 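Fly genes whose loss alters ERK activation after insulin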 (primary screen)
System: Drosophila S2R+ haemocyte-like cells expressing YFP-tagged ERK (Rolled)
Reagents: long dsRNA against Drosophila genes
Treatment: insulin stimulation versus unstimulated cells; dose and duration not given
Read-out: 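Antibody staining for doubly phosphorylated ERK divided by ERK-YFP signal, as plate z-scores, in insulin-treated and untreated cells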
Direction: replicate 1, z-score of dpERK with insulin and replicate 2, z-score of dpERK with insulin: higher = more active ERK per ERK-YFP after insulin; replicate 1, z-score of dpERK under basal conditions: higher = more basal active ERK per ERK-YFP; replicate 1, z-score of ERK-YFP with insulin: higher = more YFP-tagged ERK signal
The screen tested about 23,000 reagents; below is a random part of those that have a named target and a result. 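Extra replicates exist only for a retested subset of genes; insulin dose and duration not given; both raised and lowered dpERK matter.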 The numbers tell different reagents against one gene apart. No sequences are given here. The record does not give: the amount of reagent, the time to read-out.

no.	Target gene	reagent	replicate 1, z-score of dpERK with insulin	replicate 2, z-score of dpERK with insulin	replicate 1, z-score of dpERK under basal conditions	replicate 1, z-score of ERK-YFP with insulin
1	Dab	1	0.98	-0.28	1.37	0.95
2	dsx	1	-0.5	-0.37	-0.58	0.2
3	dsx	2	0.5	-0.2	2.1	-0.06
4	dsx	3	0.32	0.74	0.75	1.16
5	GatB	1	0.08	-0.21	-1.11	0.35
6	ttv	1	0.24	-0.34	-0.1	-0.42
7	CG3198	1	-0.13	0	1.36	-0.21
8	eIF4E1	1	-1.23	-0.71	-1.79	0.17
9	CG12861	1	0.31	-0.1	0.11	-0.15
10	CG12861	2	-0.5	0.11	-0.86	1.98
11	Zip71B	1	0.19	0.07	0.15	0.2
12	CG10317	1	-0.17	0.22	-0.2	0.14
13	CG33108	1	-1.47	0.1	0.24	0.23
14	CG32040	1	0.24	0.58	0.9	-0.07
15	CG32040	2	-0.29	0.52	0.04	0.45
16	mRpS17	1	-0.25	0.26	-0.82	1.89
17	Mt2	1	-0.72	-0.05	0.69	-0.13
18	KFase	1	0.39	-0.51	0.84	-0.36
19	Incenp	1	0.54	-0.09	0.3	0.05
20	Incenp	2	-0.26	0.48	-0.36	0.97
21	Ankrd49	1	-0.26	-0.24	-0.25	-0.03
22	sub	1	0.22	0.35	-0.09	0.23
23	scramb2	1	0.15	-0.12	-1.2	0.38
24	CG13894	1	-1.66	-3.15	-0.75	-1.23
25	CG14445	1	-0.14	-0.84	1.37	0.01
26	unc	1	-0.52	0.21	-0.23	0.58
27	Mcm7	1	-0.4	-0.6	-0.49	-0.01
28	Patsas	1	-0.67	0.08	-1.65	0.74
29	euc	1	0.26	-1.34	0.42	0.59
30	RpL27A	1	-2.51	-1.81	-1.05	-2.48
31	CG4537	1	-0.31	-0.31	-0.15	-0.2
32	tau	1	1.74	0.02	0.48	0.02
33	Wdfy2	1	-0.16	0.06	0.6	-0.33
34	mRpL4	1	0.03	0.69	-0.42	0.25
35	Ir51a	1	-0.43	-1.35	-0.13	0.52
36	Vha16-1	1	-0.31	0.07	-0.68	1.01
37	TwdlO	1	0.31	-0.01	5.9	-0.53
38	lectin-29Ca	1	0.1	-0.02	-0.39	-0.06
39	grnd	1	-0.59	-0.14	0.87	-0.06

Copied from the list:
Entry for Dab under “replicate 1, z-score of ERK-YFP with insulin”: 0.95
Entry for tau under “replicate 2, z-score of dpERK with insulin”: 0.02
Result for lectin-29Ca under “replicate 1, z-score of ERK-YFP with insulin”: -0.06
Value of dsx #1 in “replicate 2, z-score of dpERK with insulin”: -0.37
TwdlO, replicate 1, z-score of dpERK under basal conditions → 5.9
For “replicate 2, z-score of dpERK with insulin”, GatB is entered as -0.21
